Experimental data: PubChem BioAssay AID652259 (Drosophila RNAi Screening Center, 2013)
The screen tested about 22,000 reagents; below is a random part of those with a known target gene and a result. In the full data, 233 (1.1%) got an active call. 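Light values are raw, unnormalised plate reads; the ratio scores behind the reporter calls were not deposited.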 Unmarked entries are inactive. A plus sign joins genes that one reagent is predicted to hit. Not stated in the record: the amount of reagent, the time to read-out, the dose of the treatment.

- Purpose: 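Knock-downs that push a Wingless-driven reporter up or down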 (primary screen)
- System: Drosophila clone 8 imaginal disc epithelial cells
- Knock-down reagent: long dsRNA against Drosophila genes
- Conditions: pathway stimulated by co-transfected Wingless expression plasmid
- Measurement: 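Firefly luciferase from a tcf-site Wingless reporter, measured alongside co-transfected Renilla luciferase that tracks transfection; pathway stimulated by a Wingless plasmid; the firefly-to-Renilla ratio is not deposited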
- Direction: firefly reporter light: higher = more Wg reporter light, before normalisation; Renilla control light: higher = more transfected or surviving cells
- Hit rule: 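a knock-down is a candidate when at least two out of four statistical tests show it departing from its plate mean; one test alone signals a weak candidate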
- Calls: active = candidate regulator (raises or lowers reporter); inactive = not a candidate

| gene knocked down | amplicon | reporter change call, replicate 1 | firefly reporter light, replicate 1 | firefly reporter light, replicate 2 | Renilla control light, replicate 1 | Renilla control light, replicate 2 |
| --- | --- | --- | --- | --- | --- | --- |
| CG30122 | DRSC06776 | – | 24496 | – | 6803 | – |
| CG30122 | DRSC06935 | – | 11511 | – | 2621 | – |
| Rpt2 | DRSC16799 | – | 3795 | 7173 | 745 | 1414 |
| whe | DRSC20537 | – | 21584 | – | 10146 | – |
| Nhe3 | DRSC03380 | – | 2512 | 7928 | 1077 | 3116 |
| Cyp4ae1 | DRSC18455 | – | 2790 | 4664 | 1200 | 1506 |
| alpha4GT2 | DRSC13732 | – | 3469 | – | 1504 | – |
| alpha4GT2 | DRSC15905 | – | 19634 | – | 15410 | – |
| CG12817 | DRSC14555 | – | 15749 | – | 4759 | – |
| Orai | DRSC05684 | – | 19929 | – | 12461 | – |
| Orai | DRSC22061 | – | 4.50e5 | 4.93e5 | 2.27e5 | 1.72e5 |
| HINT1 | DRSC00548 | – | 2833 | 4429 | 1064 | 1780 |
| CG32054 | DRSC10684 | – | 5452 | – | 3393 | – |
| dac | DRSC03518 | – | 3523 | 4854 | 1265 | 2659 |
| Alg3 | DRSC04700 | – | 8832 | – | 2477 | – |
| CG2604 | DRSC12313 | – | 11226 | – | 2160 | – |
| Vm32E | DRSC03474 | – | 2876 | 5338 | 953 | 1985 |
| CG33514 | DRSC08471 | – | 3418 | 9696 | 1993 | 3802 |
| CG33514 | DRSC08472 | – | 1472 | 6759 | 1209 | 3560 |
| CG33514 | DRSC21670 | – | 7.33e5 | 7.43e5 | 4.58e5 | 3.31e5 |
| Sirt7 | DRSC14294 | – | 2925 | 4969 | 1725 | 1171 |
| CR32733 + CG32797 | DRSC17705 | – | 4352 | – | 1680 | – |
| Ptp69D | DRSC11258 | – | 5360 | – | 2951 | – |
| CG16978 | DRSC02553 | – | 4016 | 6496 | 1301 | 2583 |
| Obp58c | DRSC04166 | – | 2674 | 7569 | 624 | 2694 |
| CG10561 | DRSC02068 | – | 8416 | – | 2598 | – |
| CG7071 + Muted | DRSC16189 | – | 31732 | – | 4963 | – |
| CG8939 | DRSC20127 | – | 1667 | 5793 | 770 | 2138 |
| CG32437 | DRSC11760 | – | 19898 | – | 6433 | – |
| CG32437 | DRSC22020 | – | 7.99e5 | 8.45e5 | 3.43e5 | 4.28e5 |
| CG16723 | DRSC15138 | – | 13888 | – | 7424 | – |
| CG12590 | DRSC12216 | – | 12696 | – | 2120 | – |
| boi | DRSC18425 | – | 18208 | – | 15488 | – |
| boi | DRSC18598 | – | 11069 | – | 10845 | – |
| Tudor-SN | DRSC08581 | – | 7593 | – | 2650 | – |
| Lip3 | DRSC16727 | – | 13940 | 7.07e5 | 4698 | 3.20e5 |
| Gyc89Db | DRSC15009 | – | 2240 | 5984 | 1412 | 2547 |
| Sod2 | DRSC07554 | – | 17702 | – | 4251 | – |
| CG6683 | DRSC10694 | – | 4389 | – | 1707 | – |
| CG1575 | DRSC18069 | – | 1594 | 6344 | 778 | 1083 |
| CG4194 | DRSC18520 | – | 2551 | 6865 | 1048 | 2024 |
| ZAP3 | DRSC17852 | – | 2080 | 5813 | 646 | 1421 |
| ZAP3 | DRSC17853 | – | 22231 | – | 10541 | – |
| ZAP3 | DRSC18249 | – | 20672 | – | 10516 | – |
| CG3528 | DRSC00611 | – | 3163 | 7419 | 746 | 2141 |
| CG42269 | DRSC10670 | – | 1419 | 6009 | 817 | 2146 |
| CG42269 | DRSC10672 | – | 1385 | 9650 | 736 | 2948 |
| CtsL1 | DRSC05462 | – | 15945 | – | 10548 | – |
| CtsL1 | DRSC07363 | – | 10400 | – | 3969 | – |
| scro | DRSC17099 | – | 3624 | – | 936 | – |
| scro | DRSC17102 | – | 23904 | – | 21200 | – |
| gw | DRSC17135 | – | 4803 | 8102 | 896 | 1712 |
| gw | DRSC17160 | – | 17224 | – | 5288 | – |
| glu | DRSC03539 | – | 5722 | – | 1979 | – |
| Oatp74D | DRSC09491 | – | 3532 | – | 1352 | – |
| Oatp74D | DRSC10883 | – | 6129 | – | 2359 | – |
| CG17834 | DRSC02637 | – | 7100 | – | 1888 | – |
| RtGEF | DRSC03604 | – | 2583 | 7239 | 310 | 3200 |
| RtGEF | DRSC22207 | – | 5.08e5 | 5.67e5 | 2.57e5 | 2.52e5 |
| CG43897 | DRSC10173 | – | 5897 | – | 2344 | – |
| CG43897 | DRSC10965 | Wg reporter activity raised (active) | 11655 | – | 1472 | – |
| CG43897 | DRSC10967 | – | 8550 | – | 3965 | – |
| CG43897 | DRSC21583 | – | 1.01e6 | 9.68e5 | 1.54e5 | 72856 |
| RpS27A | DRSC03421 | – | 2951 | 5440 | 1164 | 2199 |
| vers | DRSC10715 | – | 2244 | – | 1036 | – |
| CG34283 | DRSC13313 | – | 2941 | – | 353 | – |
| RhoGAP93B | DRSC15488 | – | 18710 | – | 4635 | – |
| Cp15 | DRSC11118 | – | 1244 | 8180 | 1130 | 3264 |
| Gbp3 | DRSC15206 | – | 15325 | – | 13192 | – |
| CG34459 | DRSC06973 | – | 4955 | – | 2528 | – |
| CG13077 | DRSC02181 | – | 3708 | 4712 | 912 | 1973 |
| Gr68a | DRSC10803 | – | 7354 | – | 3366 | – |
| CG14839 | DRSC14963 | – | 20598 | 7.84e5 | 6100 | 3.32e5 |

Individual results from the list:
CtsL1 [DRSC05462], Renilla control light, replicate 1: 10548
CG6683 [DRSC10694], Renilla control light, replicate 1: 1707
Value of HINT1 [DRSC00548] under “Renilla control light, replicate 1”: 1064
